{"source": "the supplement of paper PMC5949888", "note": "Most values lie at the floor of the assay. Slopes are relative: functional sequences can read slightly below zero."}
{"test_system": "Saccharomyces cerevisiae PS128 hsf1 delta, HSF1(1-493) fusion", "assay": "growth estimate (transactivation domain function in HSF1 fusion, heat-shock survival) (a.u. (slope of normalised read count over time)); higher = stronger growth at 37°C, i.e. more transactivation activity", "conditions": "library: random library"}
{"substance": "PKAKLQCGVRV", "growth estimate": "< -0.25"}
{"substance": "DRLPEWRRDVKLVNWLGGKR", "growth estimate": "< -0.25"}
{"substance": "NVHPGIARGAQLRAGLSAES", "growth estimate": "< -0.25"}
{"substance": "VTSTGCKSGGQPISVVGLNI", "growth estimate": "< -0.25"}
{"substance": "VWSAKFGFSYECRHSASAVF", "growth estimate": "< -0.25"}
{"substance": "RHAGLPWGRKLATSCEAPS", "growth estimate": "< -0.25"}
{"substance": "DRR", "growth estimate": "< -0.25"}
{"substance": "IIL", "growth estimate": "< -0.25"}
{"substance": "PAGCCLGEMPRMILNQRLIP", "growth estimate": "< -0.25"}
{"substance": "VTGLPAAVSLGSLIDAGWNA", "growth estimate": "< -0.25"}
{"substance": "TEHL", "growth estimate": "< -0.25"}
{"substance": "EALSRHT", "growth estimate": -0.182}
{"substance": "RSAVLYGRSTE", "growth estimate": "< -0.25"}
{"substance": "RRKPFDRDSAQPDRSVTTGH", "growth estimate": "< -0.25"}
{"substance": "TNCKLPRPPGPPCLRCIQFH", "growth estimate": "< -0.25"}
{"substance": "EILRLKAEHPAAS", "growth estimate": "< -0.25"}
{"substance": "KAVSCNSA", "growth estimate": "< -0.25"}
{"substance": "RGSDTDWGVYVTLASIAIRV", "growth estimate": "< -0.25"}
{"substance": "GKTGISGAPHASCDSNASHL", "growth estimate": "< -0.25"}
{"substance": "LTGIYTHTPEC", "growth estimate": "< -0.25"}
{"substance": "QVGGLCVNRLICAVSVGPTP", "growth estimate": "< -0.25"}
{"substance": "GWQ", "growth estimate": "< -0.25"}
{"substance": "FRHEQLRRREFGSRRQGRAR", "growth estimate": "< -0.25"}
{"substance": "GVTELF", "growth estimate": "< -0.25"}
{"substance": "GSCTIWWWLLAPRLISIRLH", "growth estimate": "< -0.25"}
{"substance": "WDTRHHGEHRPHNWRMNLWG", "growth estimate": "< -0.25"}
{"substance": "DRGYEEPGAAH", "growth estimate": "< -0.25"}
{"substance": "SCPGGSRVGLLQRVVAGTPP", "growth estimate": "< -0.25"}
{"substance": "ARIFVSLPYEQKINPHLVSA", "growth estimate": "< -0.25"}
{"substance": "FIRSIQVLRKVCGRVLSYTG", "growth estimate": "< -0.25"}
{"substance": "VGGSSQFVNERQ", "growth estimate": "< -0.25"}
{"substance": "DDPSNLAQRLGVQY", "growth estimate": "< -0.25"}
{"substance": "KRGLRPARDLRGGA", "growth estimate": "< -0.25"}
{"substance": "CVFDFSSSRQHFRTGIFASS", "growth estimate": "< -0.25"}
{"substance": "PYFTVFLWWPRQPSSIWSWM", "growth estimate": "< -0.25"}
{"substance": "RPKRLYHLTG", "growth estimate": "< -0.25"}
{"substance": "DSQLSKTLTASVPSMVALAY", "growth estimate": "< -0.25"}
{"substance": "PGRTERNHVVCPTIRF", "growth estimate": "< -0.25"}
{"substance": "HYPSGVKASWRVSN", "growth estimate": "< -0.25"}
{"substance": "GGAMLLPTPGLREQTSAVIS", "growth estimate": "< -0.25"}
{"substance": "EKLKTLA", "growth estimate": "< -0.25"}
{"substance": "VIGHGDLPHKARFDFSNSLH", "growth estimate": "< -0.25"}
{"substance": "PWTSEVQRSR", "growth estimate": "< -0.25"}
{"substance": "GLKTRR", "growth estimate": "< -0.25"}
{"substance": "DHLRVGAFMGAIYCQGRFKS", "growth estimate": "< -0.25"}
{"substance": "RSHPRESGVAAGERHIQGKS", "growth estimate": "< -0.25"}
{"substance": "SIVPGHGGIKGPVGRGANSA", "growth estimate": "< -0.25"}
{"substance": "EWVRRWPRIISLRGA", "growth estimate": "< -0.25"}
{"substance": "KCDSPGVKVSGLLGMSL", "growth estimate": "< -0.25"}
{"substance": "SFGRSL", "growth estimate": "< -0.25"}
{"substance": "HRMPLREGHIRALTDVTQLC", "growth estimate": "< -0.25"}
{"substance": "ADSMGLRVCVKL", "growth estimate": "< -0.25"}
{"substance": "LYFRYLSRAITQRIYESSAE", "growth estimate": "< -0.25"}
{"substance": "QGSLALSTY", "growth estimate": "< -0.25"}
{"substance": "IRAKLRPSVGGDIEA", "growth estimate": "< -0.25"}
{"substance": "HHLMIEWWVIAVYATQAICA", "growth estimate": "< -0.25"}
{"substance": "SGIISIRL", "growth estimate": "< -0.25"}
{"substance": "TGNRPASH", "growth estimate": "< -0.25"}
{"substance": "LPQLAE", "growth estimate": "< -0.25"}
{"substance": "VFACSVVYEGIGSVWASIFP", "growth estimate": "< -0.25"}
{"substance": "SSIKELDALDSRSPA", "growth estimate": "< -0.25"}
{"substance": "AQYAPTIAIWF", "growth estimate": "< -0.25"}
{"substance": "LHRILTRAFLSTQSSVWSRH", "growth estimate": "< -0.25"}
{"substance": "SVEAVSCFFHEARCESWGRD", "growth estimate": -0.0858}
{"substance": "RPSGLDLGRRIPVFCRGLLL", "growth estimate": "< -0.25"}
{"substance": "TGPLVAVGNELILILAIV", "growth estimate": "< -0.25"}
{"substance": "RVRNDRVVPPDEHTA", "growth estimate": "< -0.25"}
{"substance": "VSALFFDNMCGIVEFIIGVN", "growth estimate": "< -0.25"}
{"substance": "AHNGVCMSATRAGDERHTRG", "growth estimate": "< -0.25"}
{"substance": "RHCIAFRAHQFRALR", "growth estimate": "< -0.25"}
{"substance": "HRDNDAWAQPELSWILEGLT", "growth estimate": 0.236}
{"substance": "YIDCSG", "growth estimate": "< -0.25"}
{"substance": "QAGSSRDTMPFVDPDKGAAS", "growth estimate": "< -0.25"}
{"substance": "MDVPEARLHACVYRSIVSTL", "growth estimate": "< -0.25"}
{"substance": "FKPPLVPHIRI", "growth estimate": "< -0.25"}
{"substance": "VSRQGFLTVMRLNCEHQRCN", "growth estimate": "< -0.25"}
{"substance": "GRWDW", "growth estimate": "< -0.25"}
{"substance": "SAPNRVRVDAKQFLTALSYT", "growth estimate": "< -0.25"}
{"substance": "LLIATDMGRLVQILRTIYEQ", "growth estimate": "< -0.25"}
{"substance": "PPN", "growth estimate": "< -0.25"}
{"substance": "SARSG", "growth estimate": "< -0.25"}
{"substance": "HRTFVSSSGSYY", "growth estimate": -0.174}
{"substance": "SGRHQHRIWT", "growth estimate": "< -0.25"}
{"substance": "NPPGKGES", "growth estimate": "< -0.25"}
{"substance": "GCDRE", "growth estimate": "< -0.25"}
{"substance": "ARSVQS", "growth estimate": "< -0.25"}
{"substance": "YGWHRPPTSAGEQDRLVAAM", "growth estimate": "< -0.25"}
{"substance": "TEASA", "growth estimate": "< -0.25"}
{"substance": "VYKAGGGTDRKRVRCSNSYR", "growth estimate": "< -0.25"}
{"substance": "SAQIFLIDRDAAGPDRTKER", "growth estimate": "< -0.25"}
{"substance": "KGNVRNTKNPKY", "growth estimate": "< -0.25"}
{"substance": "WRDQSLDLDRGVVCTGCKGF", "growth estimate": "< -0.25"}
{"substance": "YSQKMENTSR", "growth estimate": "< -0.25"}
{"substance": "GEGVDIQLVRYPDNDKSA", "growth estimate": "< -0.25"}
{"substance": "RTLALHRRASPTAHATYEAT", "growth estimate": "< -0.25"}
{"substance": "SVRGG", "growth estimate": "< -0.25"}
{"substance": "WWLKRSSADGCNGDPTFW", "growth estimate": -0.238}
{"substance": "LGGAIR", "growth estimate": "< -0.25"}
{"substance": "YRNYPDACLIVDKS", "growth estimate": "< -0.25"}
{"substance": "GSTDSLLPWMLAASPTYHDP", "growth estimate": "< -0.25"}
{"substance": "VVDREGFSKEFSKSCMGPAL", "growth estimate": "< -0.25"}
{"substance": "ARIPTGSLILVLLRK", "growth estimate": "< -0.25"}
{"substance": "VGKRIG", "growth estimate": "< -0.25"}
{"substance": "FSNRPLLCVAREESHVEDWR", "growth estimate": "< -0.25"}
{"substance": "GVPGLLSEFLLI", "growth estimate": 1.43}
{"substance": "VHRGTCRGFFVLRVSAPQ", "growth estimate": "< -0.25"}
{"substance": "AFQR", "growth estimate": "< -0.25"}
{"substance": "QFVCGLVRPIGECTSGLKRI", "growth estimate": "< -0.25"}
{"substance": "KSL", "growth estimate": "< -0.25"}
{"substance": "KGARYLSFRLLTGNSVVANL", "growth estimate": "< -0.25"}
{"substance": "VCNQVSLVQPDEAERSLRRS", "growth estimate": "< -0.25"}
{"substance": "ADRFGFNLTQLKSVSPSRLS", "growth estimate": "< -0.25"}
{"substance": "KMPWRCVVARRSRSWA", "growth estimate": "< -0.25"}
{"substance": "AHYDGSFFTACVTSAKS", "growth estimate": "< -0.25"}
{"substance": "QGVRRGFRQCLRSAEGCTKL", "growth estimate": "< -0.25"}
{"substance": "VSRGSSYLQLTLGK", "growth estimate": "< -0.25"}
{"substance": "LCERRSELCLLVLGSGGAIG", "growth estimate": "< -0.25"}
{"substance": "SIIAISAHFWGYQALGGTRV", "growth estimate": "< -0.25"}
{"substance": "TTKVSRGSHFFRLLLSTYWV", "growth estimate": "< -0.25"}
{"substance": "GIWRVLTDLGSTRSKGCQRV", "growth estimate": "< -0.25"}
{"substance": "IECLRRAQRSQDLQRVLGCF", "growth estimate": "< -0.25"}
{"substance": "QLIA", "growth estimate": "< -0.25"}
{"substance": "DNAIR", "growth estimate": "< -0.25"}
{"substance": "IPKNEDRRPEHEYRTLVVAS", "growth estimate": "< -0.25"}
{"substance": "RIVRY", "growth estimate": "< -0.25"}
{"substance": "GGHRVGLAPSLERKALNTDV", "growth estimate": "< -0.25"}
{"substance": "RHL", "growth estimate": "< -0.25"}
{"substance": "SEVPT", "growth estimate": "< -0.25"}
{"substance": "SPSALIFASQEVRQSMKKLW", "growth estimate": "< -0.253"}
{"substance": "HMLQKA", "growth estimate": "< -0.25"}
{"substance": "SDAAPAQCCRARILRRCLTH", "growth estimate": "< -0.25"}
{"substance": "SAIDSTERPRFGVSLVGEGG", "growth estimate": "< -0.25"}
{"substance": "TFESVSYREVELRSVNACNA", "growth estimate": "< -0.25"}
{"substance": "SNNRERVPSLVPGHLHRCRV", "growth estimate": "< -0.25"}
{"substance": "YHCILFQLFYLSET", "growth estimate": "< -0.25"}
{"substance": "QMTIPNSRSAGVVFIV", "growth estimate": "< -0.25"}
{"substance": "REGPGASEARYSALLALYRQ", "growth estimate": "< -0.25"}
{"substance": "VYSVVFEFGRHGGMNLVHED", "growth estimate": "< -0.25"}
{"substance": "RNLGVVRDTL", "growth estimate": -0.246}
{"substance": "DGF", "growth estimate": "< -0.25"}
{"substance": "CGRVWVYVGPTATDLPAGDP", "growth estimate": "< -0.25"}
{"substance": "SALKLLVG", "growth estimate": -0.243}
{"substance": "GDGTCSPSVPSY", "growth estimate": "< -0.25"}
{"substance": "WGQGTDT", "growth estimate": "< -0.25"}
{"substance": "AGRSQ", "growth estimate": "< -0.25"}
{"substance": "IQVRCVELVRHMVCSTAVRR", "growth estimate": "< -0.25"}
{"substance": "PSSPDTSVLRKGYN", "growth estimate": "< -0.25"}
{"substance": "NRLAP", "growth estimate": "< -0.25"}
{"substance": "NPDDLINQGEG", "growth estimate": "< -0.25"}
{"substance": "LYTVGKQLV", "growth estimate": "< -0.25"}
{"substance": "WFWQRYRHKEST", "growth estimate": -0.229}
{"substance": "ETLCSRDYARRD", "growth estimate": 0.393}
{"substance": "PSQGFVQSIMYSPRIVCFPF", "growth estimate": "< -0.25"}
{"substance": "TSTMSG", "growth estimate": "< -0.25"}
{"substance": "ILFRPA", "growth estimate": "< -0.25"}
{"substance": "RIEALGILWSGGVYPRENVG", "growth estimate": "< -0.25"}
{"substance": "GLTLRTFLLPQERVLLQFLT", "growth estimate": "< -0.25"}
{"substance": "VWRIIINVSVRASPSSRGPI", "growth estimate": "< -0.25"}
